PubChem BioAssay AID1224828 – NIAID – 2016
Here is an unselected part of about 17,000 reagents tested. 762 of all reagents (4.5%) were called active. 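Active calls include both raised and lowered p65 entry, mostly lowered; wells with fewer than 50 cells lack a z-score.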 The raw values are shown without normalisation.

Aim: 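Regulators linking TLR4 signalling to p65 nuclear translocation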 (primary screen)
System: mouse RAW264.7 G9 macrophage reporter cells (GFP-p65, Tnf promoter-mCherry)
Knock-down reagent: siRNA pool against mouse genes, 100 nM
Timing: 2 days siRNA transfection, then 40 min LPS before fixation
Treatment: LPS (Salmonella minnesota R595) at 10 ng/ml
Measured: 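Imaged p65 nuclear translocation ratio, normalised to the plate median, converted to robust z-scores and averaged across two replicates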
Reading the numbers: p65 translocation robust z-score: higher = more nuclear NF-kappaB p65 after LPS than the plate median; nuclear/cytoplasmic p65 ratio: higher = more nuclear NF-kappaB p65
Rule for the call: 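Called active when z exceeds 3.3 or falls under -1.56 (median of Tlr4 controls), giving activity score of at least 50; no calls for control wells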
Calls: active = hit (p65 shift raised or lowered); inactive = no clear change

Depletion of P2rx4 came out at: p65 translocation robust z-score 1.2; nuclear/cytoplasmic p65 ratio, rep 1 = 1.55; nuclear/cytoplasmic p65 ratio, rep 2 = 1.62; low cell count flag enough cells to score; inactive.
Silencing of Pabpc6 came out at: nuclear/cytoplasmic p65 ratio, rep 1 = 0; nuclear/cytoplasmic p65 ratio, rep 2 = 1.67; low cell count flag fewer than 50 cells per well; well left out of scoring; inactive.
Silencing of B3gnt8 gave: p65 translocation robust z-score -0.36; nuclear/cytoplasmic p65 ratio, rep 1 = 1.63; nuclear/cytoplasmic p65 ratio, rep 2 = 1.52; low cell count flag enough cells to score; inactive.
With knock-down of Setx, the screen gave p65 translocation robust z-score 1.49; nuclear/cytoplasmic p65 ratio, rep 1 = 1.72; nuclear/cytoplasmic p65 ratio, rep 2 = 1.83; low cell count flag enough cells to score; inactive.
For Pdzk1ip1, the entry reads p65 translocation robust z-score 1.04; nuclear/cytoplasmic p65 ratio, rep 1 = 1.85; nuclear/cytoplasmic p65 ratio, rep 2 = 1.72; low cell count flag enough cells to score; inactive.
After knock-down of Reg4 the results were p65 translocation robust z-score -0.2; nuclear/cytoplasmic p65 ratio, rep 1 = 1.54; nuclear/cytoplasmic p65 ratio, rep 2 = 1.2; low cell count flag enough cells to score; inactive.
With knock-down of Prdx6b, the screen gave p65 translocation robust z-score 0.13; nuclear/cytoplasmic p65 ratio, rep 1 = 1.3; nuclear/cytoplasmic p65 ratio, rep 2 = 1.3; low cell count flag enough cells to score; inactive.
With knock-down of Ptpn20, the screen gave nuclear/cytoplasmic p65 ratio, rep 1 = 1.65; nuclear/cytoplasmic p65 ratio, rep 2 = 1.51; low cell count flag fewer than 50 cells per well; well left out of scoring; inactive.
For Laptm5, the entry reads p65 translocation robust z-score 1.78; nuclear/cytoplasmic p65 ratio, rep 1 = 1.91; nuclear/cytoplasmic p65 ratio, rep 2 = 1.58; low cell count flag enough cells to score; inactive.
Depletion of Zfp385b resulted in: p65 translocation robust z-score -0.53; nuclear/cytoplasmic p65 ratio, rep 1 = 1.41; nuclear/cytoplasmic p65 ratio, rep 2 = 1.45; low cell count flag enough cells to score; inactive.
For Cpsf3 the deposit lists p65 translocation robust z-score 0.65; nuclear/cytoplasmic p65 ratio, rep 1 = 1.65; nuclear/cytoplasmic p65 ratio, rep 2 = 1.92; low cell count flag enough cells to score; inactive.
For Cd40lg the deposit lists p65 translocation robust z-score -0.3; nuclear/cytoplasmic p65 ratio, rep 1 = 1.44; nuclear/cytoplasmic p65 ratio, rep 2 = 1.51; low cell count flag enough cells to score; inactive.
After knock-down of Kif9, the screen gave p65 translocation robust z-score 0.42; nuclear/cytoplasmic p65 ratio, rep 1 = 1.59; nuclear/cytoplasmic p65 ratio, rep 2 = 1.39; low cell count flag enough cells to score; inactive.
After knock-down of Ces1c the results were p65 translocation robust z-score 0.58; nuclear/cytoplasmic p65 ratio, rep 1 = 1.77; nuclear/cytoplasmic p65 ratio, rep 2 = 1.46; low cell count flag enough cells to score; inactive.
Silencing of Tent4a gave: p65 translocation robust z-score 0.49; nuclear/cytoplasmic p65 ratio, rep 1 = 1.55; nuclear/cytoplasmic p65 ratio, rep 2 = 1.49; low cell count flag enough cells to score; inactive.
Against Fgb, the values are p65 translocation robust z-score -1.85; nuclear/cytoplasmic p65 ratio, rep 1 = 1.24; nuclear/cytoplasmic p65 ratio, rep 2 = 1.13; low cell count flag enough cells to score; active.
After knock-down of Ccl24 the results were p65 translocation robust z-score 0.61; nuclear/cytoplasmic p65 ratio, rep 1 = 1.41; nuclear/cytoplasmic p65 ratio, rep 2 = 1.45; low cell count flag enough cells to score; inactive.
With knock-down of Nkiras1 the results were p65 translocation robust z-score 1.28; nuclear/cytoplasmic p65 ratio, rep 1 = 1.69; nuclear/cytoplasmic p65 ratio, rep 2 = 1.52; low cell count flag enough cells to score; inactive.
After knock-down of Cryge, the record shows p65 translocation robust z-score -0.35; nuclear/cytoplasmic p65 ratio, rep 1 = 1.44; nuclear/cytoplasmic p65 ratio, rep 2 = 1.82; low cell count flag enough cells to score; inactive.
Silencing of Dmrta1 came out at: nuclear/cytoplasmic p65 ratio, rep 1 = 1.47; nuclear/cytoplasmic p65 ratio, rep 2 = 1.51; low cell count flag fewer than 50 cells per well; well left out of scoring; inactive.
Trp53i11 showed p65 translocation robust z-score -0.76; nuclear/cytoplasmic p65 ratio, rep 1 = 1.51; nuclear/cytoplasmic p65 ratio, rep 2 = 1.31; low cell count flag enough cells to score; inactive.
Knock-down of Cryl1 gave: p65 translocation robust z-score -1.47; nuclear/cytoplasmic p65 ratio, rep 1 = 1.28; nuclear/cytoplasmic p65 ratio, rep 2 = 1.63; low cell count flag enough cells to score; inactive.
After knock-down of Arpc1b, the screen gave p65 translocation robust z-score 0.75; nuclear/cytoplasmic p65 ratio, rep 1 = 1.81; nuclear/cytoplasmic p65 ratio, rep 2 = 1.66; low cell count flag enough cells to score; inactive.
After knock-down of Il15ra, the record shows p65 translocation robust z-score 0.37; nuclear/cytoplasmic p65 ratio, rep 1 = 1.42; nuclear/cytoplasmic p65 ratio, rep 2 = 1.48; low cell count flag enough cells to score; inactive.
Knock-down of Coa7 gave: nuclear/cytoplasmic p65 ratio, rep 1 = 1.36; nuclear/cytoplasmic p65 ratio, rep 2 = 1.48; low cell count flag fewer than 50 cells per well; well left out of scoring; inactive.
Or5t16 gave p65 translocation robust z-score 0.81; nuclear/cytoplasmic p65 ratio, rep 1 = 1.88; nuclear/cytoplasmic p65 ratio, rep 2 = 1.61; low cell count flag enough cells to score; inactive.
Pdcl2 scored p65 translocation robust z-score -1.89; nuclear/cytoplasmic p65 ratio, rep 1 = 1.18; nuclear/cytoplasmic p65 ratio, rep 2 = 1.13; low cell count flag enough cells to score; active.
